Reference: patent US9993536B2, “Peptides and combination of peptides and scaffolds for use in immunotherapy against renal cell carcinoma (RCC) and other cancers” (immatics biotechnologies GmbH, priority 2015, dated 2018)

Legend:
RCC samples = experiment: Label-free relative LC-MS quantitation of HLA-presented peptides (presentation profile/score), RCC vs normal tissues; set-up: species or system human; key: very highly over-presented on tumors compared to a panel of normal tissues (+++); highly over-presented on tumors compared to a panel of normal tissues (++); over-presented on tumors compared to a panel of normal tissues (+); conditions: tumors (RCC) compared to a panel of normal tissues
[1] = tested on: tumor samples of other tumor types; experiment: LC-MS detection/over-presentation of peptides on additional tumor types vs normal tissues; set-up: species or system human; conditions: for Other relevant organs/diseases: additional tumor types: over-presented on more than 5% of measured tumor samples, or presented on more than 5% with ratio of geometric means tumor vs normal tissues larger than 3; for Additional Entities: additional tumor types: over-presentation on more than 5% of measured tumor samples, or presentation on more than 5% with ratio of geometric means tumor vs normal larger than 3

Substance	Peptide Presentation (presentation score) (RCC samples)	Other relevant organs/diseases [1]	Additional Entities [1]
5 (YLYPNLTRL; listed as Homo sapiens) [compound 5]	+++	Liver	
13 (KIMAQILTV; listed as Homo sapiens) [compound 13]	+		CLL, NHL
102 (LLFDVHTTL; listed as Homo sapiens) [compound 102]	+	Lung, Brain	SCLC, Melanoma, Urinary bladder cancer, Uterine Cancer, AML
110 (LLDLHSYLL; listed as Homo sapiens) [compound 110]	+	Stomach, Leukocytes	Uterine Cancer
100 (KLNVAPLAV; listed as Homo sapiens) [compound 100]	+	Lung, Brain, Colon, Rectum, Liver, Pancreas, Melanoma, Ovary	CLL, BRCA, Uterine Cancer, AML, NHL, OC
6 (VLFELSKTV; listed as Homo sapiens) [compound 6]	+++		AML
69 (ILADLLPSL; listed as Homo sapiens) [compound 69]	++	Lung, Brain, Pancreas, Breast, Ovary	SCLC, Melanoma, Esophageal Cancer, Uterine Cancer, AML, NHL
12 (ALDPSGNQLI; listed as Homo sapiens) [compound 12]	+++	Ovary	
99 (GLAPHLEQI; listed as Homo sapiens) [compound 99]	+	Liver, Ovary	BRCA, Melanoma, AML, NHL
140 (SLANNVTSV; listed as Homo sapiens) [compound 140]	++	Lung, Brain, Pancreas, Melanoma, Ovary, Esophagus	
14 (ALLTETIFL; listed as Homo sapiens) [compound 14]	++	Leukocytes	NHL
28 (FIADLVVGL; listed as Homo sapiens) [compound 28]	++	Melanoma	SCLC, CLL, AML, NHL
16 (FMPEELPQL; listed as Homo sapiens) [compound 16]	+++	Pancreas, Breast, Ovary	
20 (AVANTTFTV; listed as Homo sapiens) [compound 20]	+++		Esophageal Cancer, Urinary bladder cancer, Uterine Cancer
56 (ILMDFSNSM; listed as Homo sapiens) [compound 56]	+	Pancreas	Urinary bladder cancer, Gallbladder Cancer, Bile Duct Cancer
10 (KLLQNNYGL; listed as Homo sapiens) [compound 10]	+		BRCA, Gallbladder Cancer, Bile Duct Cancer
73 (GLDGIPFTV; listed as Homo sapiens) [compound 73]	++	Brain, Pancreas, Breast, Melanoma	GC, Urinary bladder cancer, Uterine Cancer, AML
38 (VLLDTILQL; listed as Homo sapiens) [compound 38]	+++	Brain, Liver, Pancreas, Melanoma, Ovary	NSCLC, SCLC, CLL, BRCA, Esophageal Cancer, Urinary bladder cancer, Uterine Cancer, Gallbladder Cancer, Bile Duct Cancer, AML, NHL, OC
128 (YLEEDVYQL; listed as Homo sapiens) [compound 128]	+++	Lung, Pancreas	
79 (ALADIVWRA; listed as Homo sapiens) [compound 79]	+	Lung, Brain, Colon, Rectum, Liver, Pancreas, Prostate, Ovary, Esophagus	
137 (TLVAIVVGV; listed as Homo sapiens) [compound 137]	++	Lung, Brain, Stomach, Colon, Rectum, Liver, Pancreas, Prostate, Breast, Ovary	
143 (ALFVRLLALA; listed as Homo sapiens) [compound 143]	++	Lung, Brain, Stomach, Colon, Rectum, Liver, Melanoma, Esophagus	
55 (YLALILPVL; listed as Homo sapiens) [compound 55]	+++	Melanoma	CLL

Substance	Peptide Presentation (presentation score) (RCC samples)	Other relevant organs/diseases [1]	Additional Entities [1]
66 (TLLKTIIKV; listed as Homo sapiens) [compound 66]	++	Brain	Melanoma, Urinary bladder cancer
145 (SLHFLILYV; listed as Homo sapiens) [compound 145]	+	Lung, Brain, Colon, Rectum, Liver, Melanoma, Ovary	
33 (FIADVVEKI; listed as Homo sapiens) [compound 33]	+++	Lung, Leukocytes, Ovary	SCLC, BRCA, Esophageal Cancer
114 (ALAVNISAA; listed as Homo sapiens) [compound 114]	++	Lung, Brain, Liver, Pancreas, Esophagus	GC, CRC, CLL, BRCA, Melanoma, Urinary bladder cancer, Uterine Cancer, Gallbladder Cancer, Bile Duct Cancer, AML, NHL, PC
31 (VLFGLDPAVIKV; listed as Homo sapiens) [compound 31]	+	Brain, Ovary	
75 (FLIKSINLV; listed as Homo sapiens) [compound 75]	++		CLL, Melanoma, AML
45 (ALLGIPLTL; listed as Homo sapiens) [compound 45]	++	Prostate, Ovary, Esophagus	
91 (MLLSSLVSL; listed as Homo sapiens) [compound 91]	+	Lung, Liver	SCLC, Melanoma, Urinary bladder cancer, Gallbladder Cancer, Bile Duct Cancer
67 (LLDVLAPLV; listed as Homo sapiens) [compound 67]	+	Lung, Stomach, Liver, Pancreas, Breast, Esophagus	CRC, Melanoma, Urinary bladder cancer, Uterine Cancer, Gallbladder Cancer, Bile Duct Cancer
117 (VLFGELPAL; listed as Homo sapiens) [compound 117]	+++	Lung, Pancreas, Breast, Ovary	
112 (LLFDHLEPIEL; listed as Homo sapiens) [compound 112]	+	Leukocytes	BRCA, NHL
36 (SLFGKKYIL; listed as Homo sapiens) [compound 36]	+++	Colon, Rectum	Urinary bladder cancer, Uterine Cancer, Gallbladder Cancer, Bile Duct Cancer
150 (TLMPNINKL; listed as Homo sapiens) [compound 150]	+++	Liver	
132 (SVASTITGV; listed as Homo sapiens) [compound 132]	++	Liver, Breast	
122 (SLDPSSPQV; listed as Homo sapiens) [compound 122]	++	Liver	
89 (SLLLAVTEV; listed as Homo sapiens) [compound 89]	+		SCLC, BRCA, Melanoma, Urinary bladder cancer
57 (SLQKEILYL; listed as Homo sapiens) [compound 57]	+++		Melanoma
68 (YVLTQPPSV; listed as Homo sapiens) [compound 68]	+++	Lung, Pancreas, Leukocytes, Esophagus	BRCA
80 (KLASMLETL; listed as Homo sapiens) [compound 80]	+		Melanoma
96 (TLAETLVNL; listed as Homo sapiens) [compound 96]	+	Lung, Stomach, Colon, Rectum, Pancreas, Prostate, Breast, Ovary, Esophagus	SCLC, HCC, CLL, Melanoma, Urinary bladder cancer, Uterine Cancer, Gallbladder Cancer, Bile Duct Cancer, AML, NHL
109 (YLWSRVEKL; listed as Homo sapiens) [compound 109]	+	Pancreas, Ovary	CLL, NHL
34 (ELNNQNFYL; listed as Homo sapiens) [compound 34]	+++	Melanoma, Esophagus	CRC, Urinary bladder cancer, AML, NHL
83 (IQWSIVPEV; listed as Homo sapiens) [compound 83]	++		CLL, Melanoma, Gallbladder Cancer, Bile Duct Cancer, AML, NHL
